Source: the supplement of paper PMC10849652
The list shows a part of the results.

Chains of the proteins cited; added tags and fusions are not shown. Lines headed by an entry give the natural chain unless they say otherwise; changes in a name come on top.
UniProt Q9BQD3: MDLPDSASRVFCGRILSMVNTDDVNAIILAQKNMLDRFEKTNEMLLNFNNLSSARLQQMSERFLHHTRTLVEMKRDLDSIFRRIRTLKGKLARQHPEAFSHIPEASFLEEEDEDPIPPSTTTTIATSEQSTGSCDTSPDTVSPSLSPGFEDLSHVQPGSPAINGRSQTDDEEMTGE
UniProt Q9UGP4: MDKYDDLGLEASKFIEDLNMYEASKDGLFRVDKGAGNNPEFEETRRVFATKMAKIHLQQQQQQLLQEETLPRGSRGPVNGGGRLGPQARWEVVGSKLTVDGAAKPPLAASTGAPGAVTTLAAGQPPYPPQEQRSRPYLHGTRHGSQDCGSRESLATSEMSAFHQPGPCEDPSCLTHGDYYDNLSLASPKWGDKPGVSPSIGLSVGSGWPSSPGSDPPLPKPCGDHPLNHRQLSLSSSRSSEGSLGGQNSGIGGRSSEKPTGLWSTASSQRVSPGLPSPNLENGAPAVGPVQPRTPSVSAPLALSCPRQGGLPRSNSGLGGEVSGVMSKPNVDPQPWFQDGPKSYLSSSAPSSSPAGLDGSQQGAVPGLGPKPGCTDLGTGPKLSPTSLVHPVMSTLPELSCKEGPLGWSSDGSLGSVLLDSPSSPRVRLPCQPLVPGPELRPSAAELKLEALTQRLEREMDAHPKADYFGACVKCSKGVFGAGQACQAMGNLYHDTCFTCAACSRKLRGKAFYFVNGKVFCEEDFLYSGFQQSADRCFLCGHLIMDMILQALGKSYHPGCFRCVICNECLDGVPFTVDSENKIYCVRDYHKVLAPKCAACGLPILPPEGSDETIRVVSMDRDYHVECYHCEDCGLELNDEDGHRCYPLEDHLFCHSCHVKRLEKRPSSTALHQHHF
UniProt Q96BZ8: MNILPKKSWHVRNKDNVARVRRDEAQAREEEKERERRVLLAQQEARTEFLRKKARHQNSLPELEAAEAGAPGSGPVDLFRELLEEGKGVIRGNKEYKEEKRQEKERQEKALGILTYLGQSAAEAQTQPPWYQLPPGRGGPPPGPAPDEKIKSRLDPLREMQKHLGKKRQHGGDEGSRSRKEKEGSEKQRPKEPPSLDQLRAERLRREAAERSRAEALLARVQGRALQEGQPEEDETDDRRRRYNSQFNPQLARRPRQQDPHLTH
UniProt Q14657: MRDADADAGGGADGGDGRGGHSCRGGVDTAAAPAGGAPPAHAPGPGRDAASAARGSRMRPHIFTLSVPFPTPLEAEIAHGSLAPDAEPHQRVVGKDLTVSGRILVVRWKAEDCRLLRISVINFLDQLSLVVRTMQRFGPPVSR
UniProt Q86UP2: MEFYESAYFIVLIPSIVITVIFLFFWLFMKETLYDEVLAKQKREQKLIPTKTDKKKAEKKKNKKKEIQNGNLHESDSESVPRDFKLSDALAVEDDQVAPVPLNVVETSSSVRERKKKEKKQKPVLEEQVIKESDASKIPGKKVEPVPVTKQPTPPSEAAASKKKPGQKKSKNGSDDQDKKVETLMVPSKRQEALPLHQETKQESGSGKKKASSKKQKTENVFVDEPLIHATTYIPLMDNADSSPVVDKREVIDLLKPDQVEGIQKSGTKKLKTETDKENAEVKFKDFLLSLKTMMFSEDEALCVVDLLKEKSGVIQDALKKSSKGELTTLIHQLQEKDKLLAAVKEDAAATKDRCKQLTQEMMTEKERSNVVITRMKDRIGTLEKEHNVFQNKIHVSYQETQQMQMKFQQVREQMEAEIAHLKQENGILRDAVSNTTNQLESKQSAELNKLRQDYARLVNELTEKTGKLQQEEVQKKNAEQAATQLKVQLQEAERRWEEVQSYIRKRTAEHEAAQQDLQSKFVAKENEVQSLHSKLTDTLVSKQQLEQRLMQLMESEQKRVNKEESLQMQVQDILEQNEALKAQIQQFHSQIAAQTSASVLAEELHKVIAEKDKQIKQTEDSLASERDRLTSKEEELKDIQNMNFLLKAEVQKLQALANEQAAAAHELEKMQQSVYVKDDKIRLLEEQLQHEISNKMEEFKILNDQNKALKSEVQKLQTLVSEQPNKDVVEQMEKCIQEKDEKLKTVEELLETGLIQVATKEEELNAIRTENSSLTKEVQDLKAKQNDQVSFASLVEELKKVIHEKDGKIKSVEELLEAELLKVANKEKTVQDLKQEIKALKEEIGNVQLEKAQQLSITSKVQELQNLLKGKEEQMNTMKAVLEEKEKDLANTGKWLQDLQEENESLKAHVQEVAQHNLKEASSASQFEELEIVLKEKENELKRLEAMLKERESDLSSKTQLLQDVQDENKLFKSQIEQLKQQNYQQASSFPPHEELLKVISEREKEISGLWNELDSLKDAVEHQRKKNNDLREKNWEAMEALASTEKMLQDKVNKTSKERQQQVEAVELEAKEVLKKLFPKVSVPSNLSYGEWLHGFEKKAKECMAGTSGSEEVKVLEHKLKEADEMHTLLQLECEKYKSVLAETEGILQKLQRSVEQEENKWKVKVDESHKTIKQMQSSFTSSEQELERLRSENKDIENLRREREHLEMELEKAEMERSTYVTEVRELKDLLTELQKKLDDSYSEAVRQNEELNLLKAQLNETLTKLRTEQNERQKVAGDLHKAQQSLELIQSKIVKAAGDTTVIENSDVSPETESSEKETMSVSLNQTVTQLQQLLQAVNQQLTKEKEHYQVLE
UniProt P36776: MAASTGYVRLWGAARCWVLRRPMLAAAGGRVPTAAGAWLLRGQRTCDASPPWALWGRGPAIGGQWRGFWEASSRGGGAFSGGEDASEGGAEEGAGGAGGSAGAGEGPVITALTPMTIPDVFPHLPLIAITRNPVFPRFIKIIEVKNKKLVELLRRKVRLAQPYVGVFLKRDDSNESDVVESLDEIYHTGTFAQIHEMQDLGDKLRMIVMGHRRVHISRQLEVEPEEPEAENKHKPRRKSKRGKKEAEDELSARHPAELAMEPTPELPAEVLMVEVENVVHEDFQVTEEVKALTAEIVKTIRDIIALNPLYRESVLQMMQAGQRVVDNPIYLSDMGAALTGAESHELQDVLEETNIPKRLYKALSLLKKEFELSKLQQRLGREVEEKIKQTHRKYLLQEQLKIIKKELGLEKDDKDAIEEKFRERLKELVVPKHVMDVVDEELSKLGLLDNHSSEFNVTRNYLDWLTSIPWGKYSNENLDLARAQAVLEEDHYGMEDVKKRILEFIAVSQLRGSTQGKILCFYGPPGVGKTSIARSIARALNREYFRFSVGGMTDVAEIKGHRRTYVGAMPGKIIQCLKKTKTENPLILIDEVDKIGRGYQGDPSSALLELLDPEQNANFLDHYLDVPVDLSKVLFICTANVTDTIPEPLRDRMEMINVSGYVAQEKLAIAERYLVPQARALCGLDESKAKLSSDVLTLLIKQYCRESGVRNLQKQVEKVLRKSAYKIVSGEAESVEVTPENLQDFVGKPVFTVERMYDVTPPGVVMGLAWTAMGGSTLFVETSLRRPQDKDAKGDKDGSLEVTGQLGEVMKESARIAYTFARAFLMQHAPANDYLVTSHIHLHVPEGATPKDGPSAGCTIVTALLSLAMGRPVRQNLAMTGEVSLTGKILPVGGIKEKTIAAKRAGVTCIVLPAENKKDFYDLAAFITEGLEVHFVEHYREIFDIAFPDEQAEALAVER
UniProt Q9UIQ6, whole entry, looked up: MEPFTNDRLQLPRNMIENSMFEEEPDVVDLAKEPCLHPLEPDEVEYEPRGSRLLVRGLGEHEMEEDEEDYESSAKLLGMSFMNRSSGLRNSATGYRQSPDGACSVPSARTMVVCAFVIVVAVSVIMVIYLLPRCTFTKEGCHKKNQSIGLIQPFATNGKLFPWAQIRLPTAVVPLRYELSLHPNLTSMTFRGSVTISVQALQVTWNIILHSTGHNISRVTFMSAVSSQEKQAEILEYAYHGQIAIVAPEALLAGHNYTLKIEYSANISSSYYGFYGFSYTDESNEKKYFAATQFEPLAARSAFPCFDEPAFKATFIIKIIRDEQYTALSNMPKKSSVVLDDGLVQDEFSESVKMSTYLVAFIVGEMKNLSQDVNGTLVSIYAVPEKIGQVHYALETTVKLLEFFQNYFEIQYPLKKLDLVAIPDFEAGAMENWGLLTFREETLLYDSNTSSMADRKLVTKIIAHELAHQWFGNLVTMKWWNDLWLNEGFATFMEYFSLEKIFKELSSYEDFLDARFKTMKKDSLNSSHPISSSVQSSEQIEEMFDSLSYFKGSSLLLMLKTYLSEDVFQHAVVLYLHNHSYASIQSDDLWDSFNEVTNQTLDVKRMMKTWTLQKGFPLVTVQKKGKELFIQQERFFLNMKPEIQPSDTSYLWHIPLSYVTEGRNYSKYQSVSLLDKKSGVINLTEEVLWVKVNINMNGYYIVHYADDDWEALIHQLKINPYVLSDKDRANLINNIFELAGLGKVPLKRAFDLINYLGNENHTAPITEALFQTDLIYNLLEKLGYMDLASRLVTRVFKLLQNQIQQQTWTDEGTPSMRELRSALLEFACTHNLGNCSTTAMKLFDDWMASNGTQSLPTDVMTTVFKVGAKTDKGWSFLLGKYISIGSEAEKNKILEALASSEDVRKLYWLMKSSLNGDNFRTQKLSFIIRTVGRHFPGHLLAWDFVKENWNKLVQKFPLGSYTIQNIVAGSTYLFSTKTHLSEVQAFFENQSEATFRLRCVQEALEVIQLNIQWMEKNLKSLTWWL
UniProt Q9BRT6: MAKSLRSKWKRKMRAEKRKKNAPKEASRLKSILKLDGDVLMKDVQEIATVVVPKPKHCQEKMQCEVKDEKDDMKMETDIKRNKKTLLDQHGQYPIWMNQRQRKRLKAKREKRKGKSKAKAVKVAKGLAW
UniProt P09382, whole entry, looked up: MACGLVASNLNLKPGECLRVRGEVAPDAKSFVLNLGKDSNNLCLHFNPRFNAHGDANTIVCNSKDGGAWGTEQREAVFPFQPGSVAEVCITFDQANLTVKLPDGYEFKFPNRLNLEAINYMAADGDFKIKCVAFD
UniProt Q9NT99: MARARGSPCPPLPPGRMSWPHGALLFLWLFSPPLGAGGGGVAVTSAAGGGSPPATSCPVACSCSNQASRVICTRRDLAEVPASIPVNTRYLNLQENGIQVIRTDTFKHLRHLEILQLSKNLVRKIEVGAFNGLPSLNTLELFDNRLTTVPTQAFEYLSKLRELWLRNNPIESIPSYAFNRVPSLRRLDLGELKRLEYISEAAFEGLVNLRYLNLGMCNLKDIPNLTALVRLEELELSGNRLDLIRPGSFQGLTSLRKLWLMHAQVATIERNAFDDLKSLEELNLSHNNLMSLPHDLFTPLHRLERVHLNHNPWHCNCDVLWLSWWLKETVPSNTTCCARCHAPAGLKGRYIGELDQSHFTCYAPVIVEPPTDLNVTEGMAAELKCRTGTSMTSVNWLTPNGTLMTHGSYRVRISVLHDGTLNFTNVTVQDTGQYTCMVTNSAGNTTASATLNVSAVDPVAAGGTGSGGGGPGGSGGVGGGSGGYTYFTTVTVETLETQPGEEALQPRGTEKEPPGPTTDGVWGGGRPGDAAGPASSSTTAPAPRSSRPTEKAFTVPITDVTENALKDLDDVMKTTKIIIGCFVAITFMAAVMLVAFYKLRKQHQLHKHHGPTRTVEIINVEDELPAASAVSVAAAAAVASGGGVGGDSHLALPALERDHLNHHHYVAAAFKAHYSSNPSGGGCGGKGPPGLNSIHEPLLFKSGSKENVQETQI
UniProt P30533, whole entry, looked up: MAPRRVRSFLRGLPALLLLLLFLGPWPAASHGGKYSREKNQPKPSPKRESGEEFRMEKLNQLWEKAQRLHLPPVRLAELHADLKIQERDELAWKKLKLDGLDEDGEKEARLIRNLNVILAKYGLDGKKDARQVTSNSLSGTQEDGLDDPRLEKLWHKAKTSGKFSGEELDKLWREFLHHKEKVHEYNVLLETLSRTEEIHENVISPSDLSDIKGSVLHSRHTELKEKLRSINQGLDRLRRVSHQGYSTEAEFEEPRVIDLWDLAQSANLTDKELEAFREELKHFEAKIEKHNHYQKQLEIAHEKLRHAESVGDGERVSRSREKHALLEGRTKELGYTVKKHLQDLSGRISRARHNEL
UniProt Q14739: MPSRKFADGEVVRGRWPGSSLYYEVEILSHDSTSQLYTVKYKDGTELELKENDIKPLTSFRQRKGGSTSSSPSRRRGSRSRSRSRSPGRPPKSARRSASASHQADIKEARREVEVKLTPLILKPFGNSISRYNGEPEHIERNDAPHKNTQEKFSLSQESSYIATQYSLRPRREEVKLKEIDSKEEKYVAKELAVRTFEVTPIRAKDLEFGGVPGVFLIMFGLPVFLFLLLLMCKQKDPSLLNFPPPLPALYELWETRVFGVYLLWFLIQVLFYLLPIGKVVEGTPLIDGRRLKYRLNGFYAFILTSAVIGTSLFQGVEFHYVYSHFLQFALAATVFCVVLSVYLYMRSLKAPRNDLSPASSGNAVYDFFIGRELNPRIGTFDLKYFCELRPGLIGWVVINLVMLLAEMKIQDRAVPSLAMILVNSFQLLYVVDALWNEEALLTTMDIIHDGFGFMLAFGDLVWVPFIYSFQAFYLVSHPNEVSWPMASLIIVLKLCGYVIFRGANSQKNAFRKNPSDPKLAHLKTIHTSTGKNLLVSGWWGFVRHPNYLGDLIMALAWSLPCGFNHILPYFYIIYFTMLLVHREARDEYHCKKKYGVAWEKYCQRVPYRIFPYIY

Each target was assayed with Cc1sc2c(c1C)C(c1ccc(Cl)cc1)=N[C@@H](CC(=O)OC(C)(C)C)c1nnc(C)n1-2 (assay: log2 fold change, soluble protein after heating vs DMSO (PISA); higher = thermal stabilisation; K562 cells, 10 uM, 30 min; active = over 0.2 and 3.5 SD of the protein, either way, in both replicates (recomputed)).
Summary of the method: (§1)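 Soluble protein was defined as the supernatant after 21,000xg for 90 min. It came from K562 cells at 2×10^6 cells/mL given 10 μM compound for 30 min, heated in aliquots for 3 min across 48°C-58°C, pooled, and extracted in PBS with 0.5% NP-40 at 4°C, and was quantified by TMTpro 16plex LC-MS/MS with equalised channel sums. Thermal stability against control samples, from duplicates, is reported as log2 fold change.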

Target	log2 fold change
LRIG2 (UniProt O94898)	inactive: -0.06
KXD1 (UniProt Q9BQD3)	inactive: -0.079
LPCAT1 (UniProt Q8NF37)	inactive: -0.062
LIMD1 (UniProt Q9UGP4)	inactive: -0.005
LMO2 isoform 3 (UniProt P25791)	inactive: 0.003
LENG1 (UniProt Q96BZ8)	inactive: 0.118
LAMTOR5 (UniProt O43504)	inactive: -0.1
LAMP1 (UniProt P11279)	inactive: -0.061
LMF2 (UniProt Q9BU23)	inactive: -0.012
LAGE3 (UniProt Q14657)	inactive: -0.075
KTN1 (UniProt Q86UP2)	inactive: 0.036
LPGAT1 (UniProt Q92604)	inactive: 0.086
LONP1 (UniProt P36776)	inactive: -0.012
LNPEP (UniProt Q9UIQ6)	inactive: -0.016
LDHB (UniProt P07195)	inactive: -0.018
LDHA isoform 3 (UniProt P00338)	inactive: -0.025
LLPH (UniProt Q9BRT6)	inactive: 0.31
LAS1L (UniProt Q9Y4W2)	inactive: -0.023
LDB1 (UniProt Q86U70)	inactive: 0.013
LGALS1 (UniProt P09382)	inactive: -0.122
LRRC4B (UniProt Q9NT99)	inactive: 0.037
LRPAP1 (UniProt P30533)	inactive: 0.034
LBR (UniProt Q14739)	inactive: -0.054
LPIN1 isoform 7 (UniProt Q14693)	inactive: 0.02
LDAH isoform 2 (UniProt Q9H6V9)	inactive: 0.174
LCLAT1 (UniProt Q6UWP7)	inactive: -0.049

The targets below were run with c1ccc([C@@H]2C[C@H]2NC2CCNCC2)cc1 in the same assay as above.
Summary of the method: as §1

Target	log2 fold change
LRIG2 (UniProt O94898)	inactive: 0.054
KXD1 (UniProt Q9BQD3)	inactive: 0.034
LPCAT1 (UniProt Q8NF37)	inactive: 0.058
LIMD1 (UniProt Q9UGP4)	inactive: 0.028
LMO2 isoform 3 (UniProt P25791)	inactive: -0.004
LENG1 (UniProt Q96BZ8)	inactive: 0.055
LAMTOR5 (UniProt O43504)	inactive: 0.025
LAMP1 (UniProt P11279)	inactive: 0.031
LMF2 (UniProt Q9BU23)	inactive: -0.053
LAGE3 (UniProt Q14657)	inactive: 0.006
KTN1 (UniProt Q86UP2)	inactive: 0.001
LPGAT1 (UniProt Q92604)	inactive: 0.074
LONP1 (UniProt P36776)	inactive: 0.011
LNPEP (UniProt Q9UIQ6)	inactive: 0.046
LDHB (UniProt P07195)	inactive: 0.006
LDHA isoform 3 (UniProt P00338)	inactive: 0
LLPH (UniProt Q9BRT6)	inactive: -0.001
LAS1L (UniProt Q9Y4W2)	inactive: 0.072
LDB1 (UniProt Q86U70)	inactive: 0.014
LGALS1 (UniProt P09382)	inactive: -0.026
LRRC4B (UniProt Q9NT99)	inactive: 0.021
LRPAP1 (UniProt P30533)	inactive: 0.014
LBR (UniProt Q14739)	inactive: -0.005
LPIN1 isoform 7 (UniProt Q14693)	inactive: 0.023
LDAH isoform 2 (UniProt Q9H6V9)	inactive: -0.059
LCLAT1 (UniProt Q6UWP7)	inactive: 0.002
